PubChem BioAssay AID504764, Drosophila RNAi Screening Center – 2011
Purpose: 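Knock-downs that raise or lower a Notch target reporter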 (primary screen). Cell system: Drosophila Kc167 cells. Knock-down reagent: long dsRNA against Drosophila genes. Timing: about 5 days (4 days dsRNA, then 24 h after transfection). Challenge: transfection of constitutively active membrane-tethered Notch lacking the extracellular domain, read 24 h later. Detection: 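Light from a Notch-responsive E(spl)m3 luciferase reporter under active Notch, with control-promoter and no-Notch reporter wells to normalise; raw counts from paired wells a and b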. Reading the numbers: induced reporter light, run 1, well a and induced reporter light, run 1, well b: higher = more light from the Notch target reporter with active Notch; control promoter light, run 1, well a and control promoter light, run 1, well b: higher = more light from the viral control promoter (cell number, transfection, viability); uninduced reporter light, run 1, well a: higher = more light from the Notch target reporter without active Notch. Rule for the call: 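Hit if the duplicate-averaged log2 ratio of induced to control-promoter light gives a plate-wise z beyond ±2, or induced to uninduced beyond ±1.8; weak-control or discordant-duplicate wells dropped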. Meaning of the calls: active = modifier hit (raised or lowered Notch signal); inactive = not a hit.
In all, the deposit lists about 22,000 reagents; below is a random part of those with a known target gene and a result. In the full data, 403 (1.9%) are marked active. 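Unnormalised raw counts per well; ratio z-scores behind the hit calls and whether each hit raises or lowers signal are not deposited.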 The numbers tell different reagents against one gene apart. A plus sign joins genes that one reagent is predicted to hit. No sequences are given here. Not stated in the record: the amount of reagent.

kz: induced reporter light, run 1, well a = 1.23e5; induced reporter light, run 1, well b = 1.31e5; control promoter light, run 1, well a = 2.12e5; control promoter light, run 1, well b = 1.82e5; uninduced reporter light, run 1, well a = 9025; call = inactive
CPT2: induced reporter light, run 1, well a = 1.54e5; induced reporter light, run 1, well b = 1.35e5; control promoter light, run 1, well a = 2.33e5; control promoter light, run 1, well b = 2.62e5; uninduced reporter light, run 1, well a = 10610; call = inactive
MTF-1 #1: induced reporter light, run 1, well a = 1.76e5; induced reporter light, run 1, well b = 1.68e5; control promoter light, run 1, well a = 2.23e5; control promoter light, run 1, well b = 1.97e5; uninduced reporter light, run 1, well a = 11145; call = inactive
MTF-1 #2: induced reporter light, run 1, well a = 1.78e5; induced reporter light, run 1, well b = 1.19e5; control promoter light, run 1, well a = 1.65e5; control promoter light, run 1, well b = 1.61e5; uninduced reporter light, run 1, well a = 6465; call = inactive
CG42304 + Snup #1: induced reporter light, run 1, well a = 89005; induced reporter light, run 1, well b = 88215; control promoter light, run 1, well a = 1.39e5; control promoter light, run 1, well b = 1.79e5; uninduced reporter light, run 1, well a = 6245; call = inactive
CG42304 + Snup #2: induced reporter light, run 1, well a = 17085; induced reporter light, run 1, well b = 20630; control promoter light, run 1, well a = 31820; control promoter light, run 1, well b = 32990; uninduced reporter light, run 1, well a = 2632; call = inactive
CG42304 + Snup #3: call = inactive
mahe: induced reporter light, run 1, well a = 1.76e5; induced reporter light, run 1, well b = 1.65e5; control promoter light, run 1, well a = 2.31e5; control promoter light, run 1, well b = 2.21e5; uninduced reporter light, run 1, well a = 12865; call = inactive
CG17350: induced reporter light, run 1, well a = 31735; induced reporter light, run 1, well b = 29575; control promoter light, run 1, well a = 31905; control promoter light, run 1, well b = 35695; uninduced reporter light, run 1, well a = 2655; call = inactive
AMPKalpha: induced reporter light, run 1, well a = 1.93e5; induced reporter light, run 1, well b = 1.50e5; control promoter light, run 1, well a = 1.96e5; control promoter light, run 1, well b = 2.49e5; uninduced reporter light, run 1, well a = 12178; call = inactive
CG13502: induced reporter light, run 1, well a = 44540; induced reporter light, run 1, well b = 37860; control promoter light, run 1, well a = 40840; control promoter light, run 1, well b = 49645; uninduced reporter light, run 1, well a = 1625; call = inactive
CanB: induced reporter light, run 1, well a = 1.59e5; induced reporter light, run 1, well b = 1.97e5; control promoter light, run 1, well a = 2.71e5; control promoter light, run 1, well b = 2.86e5; uninduced reporter light, run 1, well a = 11055; call = inactive
Atxn7: induced reporter light, run 1, well a = 1.11e5; induced reporter light, run 1, well b = 1.21e5; control promoter light, run 1, well a = 1.35e5; control promoter light, run 1, well b = 1.14e5; uninduced reporter light, run 1, well a = 12532; call = inactive
CG14837: induced reporter light, run 1, well a = 1.57e5; induced reporter light, run 1, well b = 1.13e5; control promoter light, run 1, well a = 1.26e5; control promoter light, run 1, well b = 1.11e5; uninduced reporter light, run 1, well a = 7060; call = inactive
CG13771: induced reporter light, run 1, well a = 1.56e5; induced reporter light, run 1, well b = 1.22e5; control promoter light, run 1, well a = 2.07e5; control promoter light, run 1, well b = 1.45e5; uninduced reporter light, run 1, well a = 9265; call = inactive
Pcyt1: induced reporter light, run 1, well a = 1.03e5; induced reporter light, run 1, well b = 88915; control promoter light, run 1, well a = 1.72e5; control promoter light, run 1, well b = 2.23e5; uninduced reporter light, run 1, well a = 6480; call = inactive
CG42404: induced reporter light, run 1, well a = 1.93e5; induced reporter light, run 1, well b = 2.00e5; control promoter light, run 1, well a = 94455; control promoter light, run 1, well b = 1.04e5; uninduced reporter light, run 1, well a = 18642; call = active
fan: induced reporter light, run 1, well a = 2.40e5; induced reporter light, run 1, well b = 2.52e5; control promoter light, run 1, well a = 2.82e5; control promoter light, run 1, well b = 2.38e5; uninduced reporter light, run 1, well a = 9650; call = inactive
capu #1: induced reporter light, run 1, well a = 1.10e5; induced reporter light, run 1, well b = 83905; control promoter light, run 1, well a = 1.57e5; control promoter light, run 1, well b = 1.31e5; uninduced reporter light, run 1, well a = 8985; call = inactive
capu #2: induced reporter light, run 1, well a = 94680; induced reporter light, run 1, well b = 79775; control promoter light, run 1, well a = 1.05e5; control promoter light, run 1, well b = 1.03e5; uninduced reporter light, run 1, well a = 8045; call = inactive
capu #3: induced reporter light, run 1, well a = 1.99e5; induced reporter light, run 1, well b = 1.41e5; control promoter light, run 1, well a = 1.57e5; control promoter light, run 1, well b = 1.30e5; uninduced reporter light, run 1, well a = 9785; call = inactive
capu #4: induced reporter light, run 1, well a = 2.20e5; induced reporter light, run 1, well b = 2.38e5; control promoter light, run 1, well a = 2.25e5; control promoter light, run 1, well b = 2.07e5; uninduced reporter light, run 1, well a = 20985; call = inactive
Best1: induced reporter light, run 1, well a = 76170; induced reporter light, run 1, well b = 82015; control promoter light, run 1, well a = 91800; control promoter light, run 1, well b = 69840; uninduced reporter light, run 1, well a = 5625; call = inactive
psh: induced reporter light, run 1, well a = 95205; induced reporter light, run 1, well b = 1.01e5; control promoter light, run 1, well a = 92580; control promoter light, run 1, well b = 86550; uninduced reporter light, run 1, well a = 13665; call = inactive
